Source: PubChem BioAssay AID504834 (National Center for Advancing Translational Sciences (NCATS), 2011)
Hit rate of the full screen: of about 320,000 compounds, about 22,000 (6.9%) were called active. The inconclusive results got no clear call from the source; some entries with a clear call stand among them for comparison. Calls come from the whole dose curve; as a rule, active = well fitted inhibition curve with a large enough effect; inconclusive = small, poorly fitted or top-dose-only effect, or another doubt; inactive = no such curve, though single readings can be large or run the other way. Where the call is inconclusive, the potency comes from a doubtful curve fit.

Assay: Primary qHTS for delayed death inhibitors of the malarial parasite plastid, 96 hour incubation
Conditions: P. falciparum luciferase reporter growth; series mostly up to 28.7 µM
Summary of the method: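 Readout is luminescence from an integrated firefly luciferase in P. falciparum. Red cells, 2% hematocrit and 0.05% parasitemia final, were cultured with compound through two parasite generations (96 hours) at 37 C, 5% CO2.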
Potency is the fitted concentration of half-maximal effect.

Structure (SMILES)	Potency
Cc1ccc2nsnc2c1S(=O)(=O)Nc1ccccc1C(=O)O	inactive
CSc1ccc(/C=C/C(=O)NC23CC4CC(CC(C4)C2)C3)cc1	inconclusive: 18.5 µM [inhibitor, single point]
O=C(C(Cl)c1ccccc1)N1CCCC1 (stereo not drawn)	inconclusive: 2.62 µM [inhibitor, full curve, poor fit]
O=C1Nc2cc(C(=O)N3CCc4ccccc4C3)ccc2S/C1=C\c1ccccc1	inactive
Cc1cc(C(C)(C)C)cc(C)c1S(=O)(=O)N1CCN(C(=O)c2cc([N+](=O)[O-])c[nH]c2=O)CC1	inconclusive: 1.17 µM [inhibitor, full curve]
CN(C(=O)COc1ccccc1)c1nnc(C23CC4CC(CC(C4)C2)C3)s1	inconclusive: 11.7 µM [inhibitor, single point]
CC1(C)C2([N+](=O)[O-])CN3CC1([N+](=O)[O-])CN(C2)C3c1ccccn1 (stereo not drawn)	inconclusive: 0.0037 µM [inhibitor, full curve, poor fit]
CC(=O)N1CCC(N(CCCOC(C)C)S(=O)(=O)c2ccc([N+](=O)[O-])cc2)CC1	inconclusive: 3.29 µM [inhibitor, full curve, poor fit]
CCS(=O)(=O)c1nc(S(=O)(=O)c2ccc(C)cc2)c(N2CCCC2)s1	inconclusive: 18.5 µM [inhibitor, single point]
CCNC(=O)NCc1c(C)c(C)n(Cc2ccccc2)c1-n1cccc1	inactive
CC(=O)c1ccc(NC(=O)C2C3CCC(C3)C2C(=O)O)cc1 (stereo not drawn)	active: 13.1 µM
O=C(NCc1cccs1)C1CC(=O)N(c2ccccc2)C1 (stereo not drawn)	inactive
C=CCC1(CC=C)CCCN1C(=O)c1cc(COc2cncc(Cl)c2)on1	inconclusive: 18.5 µM [inhibitor, single point]
COc1ccc(-n2nnnc2SCC(=O)Nc2ccccc2)cc1	inactive
CCC(C)n1c(SCC(=O)Nc2ccc3[nH]c(=O)[nH]c3c2)nc2ccccc2c1=O (stereo not drawn)	inconclusive: 18.5 µM [inhibitor, single point]
Cc1cc(NC(=O)c2cccc(S(=O)(=O)N3CCOCC3)c2)c2ccccc2n1	inconclusive: 10.4 µM [inhibitor, single point]
CC(C)Cn1c(N)c(C(=O)COC(=O)Cc2cccc(C(F)(F)F)c2)c(=O)n(C)c1=O	inconclusive: 14.7 µM [inhibitor, single point]
CCOC(=O)C1=C(C)N=C2c3ccccc3C(=O)C2C1c1ccc(C)cc1 (stereo not drawn)	inconclusive: 0.165 µM [inhibitor, full curve, poor fit]
COC(=O)C1=C(C)NC(C)=C(C(=O)OC)C1C(=O)OCC(=O)N1CCCCC1C (stereo not drawn)	inconclusive: 3.7 µM [inhibitor, single point]
COc1cccc(OCc2cc(C(=O)N3CCN(C(=O)c4ccco4)CC3)no2)c1	inconclusive: 9.28 µM [inhibitor, partial curve]
COc1cccc(C2CC(c3ccccc3)n3ncnc3N2)c1 (stereo not drawn)	inconclusive: 11.7 µM [inhibitor, single point]
O=C(COC(=O)c1ccccc1)Nc1ccccc1N1CCOCC1	inactive
Cc1cccc(OCCNC(=S)NC(=O)c2cncc(Br)c2)c1	inconclusive: 9.28 µM [inhibitor, single point]

Structure (SMILES)	Potency
Cc1cccc(C(=O)NCCc2csc(C)n2)c1	inactive
O=C(OCCN1CCN(C2=NS(=O)(=O)c3ccccc32)CC1)c1ccccc1F	inconclusive: 13.1 µM [inhibitor, single point]
COc1cc(C)ccc1OCc1cc(C(=O)N2CCN(C3CCCCC3)CC2)no1	inactive
COc1ccccc1C(=O)Nc1ccc(Br)cc1C	inconclusive: 0.738 µM [inhibitor, partial curve, poor fit]
COc1ccc(S(=O)(=O)N(CC(=O)N2CCOCC2)Cc2ccccc2)cc1C	inconclusive: 13.1 µM [inhibitor, single point]
COC(=O)[C@H](Cc1ccccc1)NC(=O)[C@@]1(C)C[C@@H]1[C@@H](NC(=O)OCc1ccccc1)c1ccccc1	inconclusive: 10.4 µM [inhibitor, single point]
COc1ccc(C2C(C(=O)Nc3ccc(OC)c(OC)c3)c3ccccc3C(=O)N2C)cc1 (stereo not drawn)	inconclusive: 13.1 µM [inhibitor, single point]
CCOC(=O)c1cccnc1SCc1cc(=O)n2ccccc2n1	inconclusive: 0.147 µM [inhibitor, full curve]
Cc1ccc2cc(C)c(SCC(=O)NCC3CCCO3)nc2c1 (stereo not drawn)	inconclusive: 2.62 µM [inhibitor, partial curve, poor fit]
CC(C)N1C(=O)CC(Nc2ccc(N3CCOCC3)cc2)C1=O (stereo not drawn)	inactive
COCCOC(=O)c1[nH]c2c(c1C)C(=O)CC(c1ccc(N(C)C)cc1)C2 (stereo not drawn)	inconclusive: 0.415 µM [inhibitor, partial curve, poor fit]
CCOC(=O)c1ccc(NC2c3ccccc3C(=O)N2c2cccnc2)cc1 (stereo not drawn)	inconclusive: 11.7 µM [inhibitor, single point]
Cc1cccc(Cc2nnc(CCC(=O)NCc3cnc4ccccn34)o2)c1	inconclusive: 18.5 µM [inhibitor, single point]
Cc1cccc(CSc2[nH]c(=O)ncc2C)c1	inactive
N#Cc1nc(NCC(F)F)nc(Nc2cc(F)cc(F)c2)n1	inconclusive: 1.65 µM [inhibitor, full curve]
N#CCSc1nn(-c2ccc(F)cc2)c(=S)s1	inconclusive: 18.5 µM [inhibitor, single point]
COc1ccc(CNc2ncnc3ccccc23)cc1	inactive
Cc1ccccc1COCCN1CCN(S(=O)(=O)c2ccccc2)CCC1=O	inconclusive: 13.1 µM [inhibitor, single point]
Cc1ccc(S(=O)(=O)c2nc(-c3ccccc3)oc2N2CCCC2)cc1	inconclusive: 20.8 µM [inhibitor, partial curve, poor fit]
COc1ccc(N(CC(=O)Nc2ccccc2C(N)=O)S(=O)(=O)c2ccc(C)c([N+](=O)[O-])c2)cc1	inactive
CCC(C)NC(=O)c1cnn2c1NC(c1cccs1)CC2C(F)(F)F (stereo not drawn)	inactive
COc1ccc(-c2noc3c2-c2nc(-c4ccc(Cl)cc4)sc2CC3)cc1	inconclusive: 0.329 µM [inhibitor, full curve]
Cc1cccc([C@@H]2[C@@H]3C(=O)N(Cc4ccccc4)C(=O)[C@@H]3[C@]3(Cc4ccc(Cl)cc4)C(=O)N(c4ccccc4)C(=O)N23)c1	inconclusive: 0.0657 µM [inhibitor, full curve, poor fit]

Pulled by compound from the list above (2):
Structure (SMILES)	Potency
COc1ccc(S(=O)(=O)N(CC(=O)N2CCOCC2)Cc2ccccc2)cc1C	inconclusive: 13.1 µM [inhibitor, single point]
Cc1cccc([C@@H]2[C@@H]3C(=O)N(Cc4ccccc4)C(=O)[C@@H]3[C@]3(Cc4ccc(Cl)cc4)C(=O)N(c4ccccc4)C(=O)N23)c1	inconclusive: 0.0657 µM [inhibitor, full curve, poor fit]

Later entries:

Structure (SMILES)	Potency
Cc1c(NS(=O)(=O)c2cccs2)cccc1-c1nc2cccnc2s1	inactive
CCOc1ccc(C2N(c3ccc(Cl)cc3)C(=O)C3CCCN32)cc1OC (stereo not drawn)	inactive
NNC(=S)Nc1ccc(S(=O)(=O)N2CCCCC2)cc1	inconclusive: 13.1 µM [inhibitor, single point]
CCc1ccccc1NC(=S)N1CCC(NC(=O)c2ccc(OC)cc2)CC1	inconclusive: 2.33 µM [inhibitor, partial curve, poor fit]
COCCOc1cc(NC(=O)CS(=O)CC(=O)N(C)C)c(Cl)cc1Cl (stereo not drawn)	inconclusive: 18.5 µM [inhibitor, single point]
Cc1ccc(S(=O)(=O)Nc2ccc(C(=O)N3CCCC3)cc2)cc1	inconclusive: 11.7 µM [inhibitor, partial curve]
Cc1nnc(-c2ccccc2)nc1N1CCOCC1	inactive
C/C=C(/C)C(=O)O[C@@H]1c2cc(OC)c(OC)c(OC)c2-c2c(cc3c(c2OC)OCO3)C[C@H](C)[C@]1(C)O	inconclusive: 18.5 µM [inhibitor, single point]
CCOC(=O)/C(=C\c1ccccc1)C(=O)c1cc(C(C)=O)c(Nc2ccccc2)s1	inconclusive: 2.94 µM [inhibitor, full curve]
CCc1cc(-c2nc(N)ncc2-c2csc(C)n2)c(O)cc1OC	inconclusive: 2.62 µM [inhibitor, partial curve, poor fit]
c1csc(CNc2ncnc3ccc(-c4ccoc4)cc23)c1	inconclusive: 18.5 µM [inhibitor, single point]
O=C(CCSc1nnc(-c2ccc(O)cc2)o1)N1CCOCC1	inactive
CCOc1ccc(/C=N/NC(=O)CC(=O)NCc2ccccc2)cc1	inactive
CC1=C(C(=O)Nc2ccccc2F)C(c2ccsc2)C2=C(CC(c3ccccc3)CC2=O)N1 (stereo not drawn)	inconclusive: 10.4 µM [inhibitor, single point]
O=C(NCc1cnn(-c2ccccc2)c1)C1CCC(=O)N(C2CC2)C1 (stereo not drawn)	active: 5.22 µM
CC(=O)OC1C2CCC1C(N1CCCCC1)CC2 (stereo not drawn)	inactive
CCCN1C(=O)SC(CC(=O)Nc2ccc(C)cc2)C1=O (stereo not drawn)	inconclusive: 0.0233 µM [inhibitor, full curve, poor fit]
CCOc1ccc(NC(=O)CN(c2ccc(OC)cc2)S(=O)(=O)c2cccs2)cc1	inactive
COCC(C)n1c(C)cc(C(=O)COC(=O)c2ccc3ncsc3c2)c1C (stereo not drawn)	inactive
COc1cc(/C=C2/SC(=S)N(Cc3ccccc3)C2=O)ccc1O	inconclusive: 2.94 µM [inhibitor, single point]
CC(C)C(c1nnnn1C1CCCC1)N1CCc2ccccc21 (stereo not drawn)	inconclusive: 18.5 µM [inhibitor, single point]
COc1ccccc1N(CCC#N)C(=O)CSc1nc(-c2ccccc2)cn1N	inconclusive: 18.5 µM [inhibitor, single point]
